These are yes or no findings as the source states them, for the method shown. In cells and extracts the contact can be indirect. Here binding means that the protein was enriched with, or labelled near, the bait; the list need not be complete. For part of these data: A no says only that the protein was not detected with the bait.

By UniProt entry, the sequences of proteins in these tests, tags left out. Where a name states a change or a piece, a line headed by the entry shows the natural chain unless it says otherwise. Chains listed by the source or under a name are the forms on record and can include a tag or linker. Residues count along the entry.
MCL1-Δ208–350 (Q07820, residues 1-207): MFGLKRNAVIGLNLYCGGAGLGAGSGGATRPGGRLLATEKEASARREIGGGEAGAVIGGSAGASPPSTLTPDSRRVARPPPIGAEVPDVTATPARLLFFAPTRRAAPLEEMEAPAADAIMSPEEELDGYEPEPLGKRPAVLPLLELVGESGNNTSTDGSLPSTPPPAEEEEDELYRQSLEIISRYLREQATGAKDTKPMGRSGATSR
MCL1-Δ208–350-P198A (Q07820, form named): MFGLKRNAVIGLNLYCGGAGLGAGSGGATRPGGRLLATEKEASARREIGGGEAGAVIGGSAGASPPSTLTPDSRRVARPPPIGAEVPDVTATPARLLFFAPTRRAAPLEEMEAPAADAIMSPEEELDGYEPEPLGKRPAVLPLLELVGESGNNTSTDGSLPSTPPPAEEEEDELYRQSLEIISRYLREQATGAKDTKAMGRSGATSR
UniProt P06733: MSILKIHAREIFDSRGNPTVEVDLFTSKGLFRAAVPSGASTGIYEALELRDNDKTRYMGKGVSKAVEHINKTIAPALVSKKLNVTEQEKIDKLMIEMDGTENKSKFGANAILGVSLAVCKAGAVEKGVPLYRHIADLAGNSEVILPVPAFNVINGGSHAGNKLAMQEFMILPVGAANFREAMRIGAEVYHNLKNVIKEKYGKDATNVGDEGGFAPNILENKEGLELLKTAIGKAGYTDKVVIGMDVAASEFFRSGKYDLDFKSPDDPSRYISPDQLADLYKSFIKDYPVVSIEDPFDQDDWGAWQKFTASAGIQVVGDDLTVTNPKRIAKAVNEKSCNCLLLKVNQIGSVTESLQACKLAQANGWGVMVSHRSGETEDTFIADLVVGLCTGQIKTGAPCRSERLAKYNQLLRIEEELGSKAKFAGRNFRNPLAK
UniProt Q12905: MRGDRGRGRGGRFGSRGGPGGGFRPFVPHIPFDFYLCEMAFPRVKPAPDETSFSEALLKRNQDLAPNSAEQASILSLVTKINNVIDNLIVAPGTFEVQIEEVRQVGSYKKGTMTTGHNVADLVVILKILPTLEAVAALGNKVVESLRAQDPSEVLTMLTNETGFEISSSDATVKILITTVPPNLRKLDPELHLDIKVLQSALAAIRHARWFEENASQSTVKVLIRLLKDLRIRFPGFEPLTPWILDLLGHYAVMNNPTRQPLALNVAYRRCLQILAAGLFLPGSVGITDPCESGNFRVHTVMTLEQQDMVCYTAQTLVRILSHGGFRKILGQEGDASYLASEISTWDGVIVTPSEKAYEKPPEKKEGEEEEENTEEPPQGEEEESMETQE

The target of one assay is MCL1-Δ208–350-P198A (UniProt Q07820). Briefly: affinity purification with mass spectrometry; MCL1-Δ208–350 as bait and MCL1-Δ208–350-P198A as control, immunoprecipitated with anti-MCL1 antibodies; interactions doxorubicin-inducible.
The target of a further assay is MCL1-Δ208–350 (UniProt Q07820). Described as above.

With “alpha-enolase (from UniProt P06733 1-434) (enzyme)”, the binding result was “no binding” with MCL1-Δ208–350-P198A and “binds” in the assay with MCL1-Δ208–350.
As to “interleukin enhancer-binding factor 2 (from UniProt Q12905 1-390)”, the binding entry in the assay with MCL1-Δ208–350-P198A is given as “no binding”.

These data come from paper PMC8766550.
